Data reported in PMC9974511.
No constants are given. Whether binding was seen depends on the method and setting. In cells and extracts the contact can be indirect. Binding calls can cover weak binding; strength is not graded here. Tags and fused reporters may be left off the sequences shown.

B1: Flag–Ndel1 (nuclear distribution element nudE-like 1) (protein, UniProt Q9ERR1 1-345)
chain: MDGEDIPDFSSLKEETAYWKELSLKYKQSFQEARDELVEFQEGSRELEAELEAQLVQAEQRNRDLQADNQRLKYEVEALKEKLEHQYAQSYKQVSVLEDDLSQTRAIKEQLHKYVRELEQANDDLERAKRATIVSLEDFEQRLNQAIERNAFLESELDEKESLLVSVQRLKDEARDLRQELAVRERQQEVTRKSAPSSPTLDCEKMDSAVQASLSLPATPVGKGTENSFPSPKAIPNGFGTSPLTPSARISALNIVGDLLRKVGALESKLAACRNFAKDQASRKSYVPGSVNCGVMNSNGPECPRSGRATFFHKGAVNGFDPAPPPPGLGSSRPSSAPGMLPLSV
B2: endogenous Ndel1 (protein, UniProt Q9GZM8 1-345)
chain: MDGEDIPDFSSLKEETAYWKELSLKYKQSFQEARDELVEFQEGSRELEAELEAQLVQAEQRNRDLQADNQRLKYEVEALKEKLEHQYAQSYKQVSVLEDDLSQTRAIKEQLHKYVRELEQANDDLERAKRATIVSLEDFEQRLNQAIERNAFLESELDEKESLLVSVQRLKDEARDLRQELAVRERQQEVTRKSAPSSPTLDCEKMDSAVQASLSLPATPVGKGTENTFPSPKAIPNGFGTSPLTPSARISALNIVGDLLRKVGALESKLAACRNFAKDQASRKSYISGNVNCGVLNGNGTKFSRSGHTSFFDKGAVNGFDPAPPPPGLGSSRPSSAPGMLPLSV

Target: microtubule (polymerized tubulin) (human (endogenous in HEK293))
Assay: co-sedimentation; microtubule cosedimentation: HEK293 lysate in microtubule-stabilizing buffer (100 mM PIPES pH 6.8, 0.1% NP40, 5 mM MgCl2, 2 mM EGTA, 100 mM NaF, 2 M glycerol), 30 μM Taxol 30 min 37 °C, 12,000 × g 40 min; pellet and supernatant by western blot; with Gcap14 coexpression or Gcap14 …

Row | Binder | binding
1 | B1 | binds
2 | B2 | binds
